Data: paper PMC12041575
These are yes or no findings as the source states them, for the method shown. In cells and extracts the contact can be indirect. Some entries that bind do so weakly or less than the wild type.

Chains of the proteins cited; added tags and fusions are not shown.
UniProt Q9NRC8: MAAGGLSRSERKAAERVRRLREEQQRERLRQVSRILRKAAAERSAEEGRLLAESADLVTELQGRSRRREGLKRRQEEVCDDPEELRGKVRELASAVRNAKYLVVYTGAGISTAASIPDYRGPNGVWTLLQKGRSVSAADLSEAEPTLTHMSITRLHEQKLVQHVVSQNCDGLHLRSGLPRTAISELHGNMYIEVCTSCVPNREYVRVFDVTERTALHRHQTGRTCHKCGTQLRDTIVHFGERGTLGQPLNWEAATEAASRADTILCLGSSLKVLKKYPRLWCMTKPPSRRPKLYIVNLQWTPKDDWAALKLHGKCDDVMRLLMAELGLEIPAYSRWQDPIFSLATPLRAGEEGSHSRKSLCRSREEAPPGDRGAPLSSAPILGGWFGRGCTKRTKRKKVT

Biological target: T1, DExD-box helicase 21 (DDX21) (human (endogenous in HCT116)) (UniProt Q9NR30)
T1 sequence: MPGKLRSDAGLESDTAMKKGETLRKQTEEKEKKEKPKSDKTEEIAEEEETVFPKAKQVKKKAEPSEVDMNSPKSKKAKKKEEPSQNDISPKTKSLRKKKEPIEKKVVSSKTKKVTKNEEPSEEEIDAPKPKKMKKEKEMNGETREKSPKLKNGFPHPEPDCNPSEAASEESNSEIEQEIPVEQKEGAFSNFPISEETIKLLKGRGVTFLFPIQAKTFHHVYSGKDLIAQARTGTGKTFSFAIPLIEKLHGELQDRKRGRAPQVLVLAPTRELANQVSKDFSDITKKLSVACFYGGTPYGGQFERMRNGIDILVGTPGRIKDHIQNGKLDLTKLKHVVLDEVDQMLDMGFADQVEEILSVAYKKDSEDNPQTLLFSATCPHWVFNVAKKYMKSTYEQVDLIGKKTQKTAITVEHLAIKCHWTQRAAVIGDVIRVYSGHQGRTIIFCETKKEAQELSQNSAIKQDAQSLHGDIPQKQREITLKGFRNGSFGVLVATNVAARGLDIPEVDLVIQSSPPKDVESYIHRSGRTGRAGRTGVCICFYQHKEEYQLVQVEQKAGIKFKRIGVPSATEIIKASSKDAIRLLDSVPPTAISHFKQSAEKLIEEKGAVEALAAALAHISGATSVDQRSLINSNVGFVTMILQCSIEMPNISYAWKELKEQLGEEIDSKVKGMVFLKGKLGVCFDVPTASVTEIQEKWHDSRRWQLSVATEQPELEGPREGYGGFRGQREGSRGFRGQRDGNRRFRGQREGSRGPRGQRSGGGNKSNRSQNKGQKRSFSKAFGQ
Test: co-IP; Co-IP and western blotting; cells and bait not given

binding: binds
Substance: sirtuin 7 (SIRT7) (from UniProt Q9NRC8 1-400)
